Assay results: PubChem BioAssay AID2685 (National Center for Advancing Translational Sciences (NCATS), 2010)
The other results are listed elsewhere or left out. Further columns of the screen follow, without active or inactive calls. Compounds called inactive in the main read-out are mostly missing here. The note in brackets gives the kind of curve behind each potency; many fits are weak.

Test: qHTS Assay for Lipid Storage Modulators in Drosophila S3 Cells;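 on cell number change: cells counted by Cell Tracker Red CMTPX staining in the red channel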
Conditions: BODIPY lipid droplet fluorescence, 18-24 h; for cell number change: measured here: cell count max response, cells fed with added oleic acid
Summary of the method: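 Laser-scanning cytometry quantifies lipid droplet accumulation (500–530 nm total intensity; droplet/cell object ratio) in oleic acid-fed (400 uM added) Drosophila S3 cells treated with a concentration series. 20 uM Triacsin C defined 100% inhibition.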

[1] = measured here: lipid fluorescence (Fed channel) AC50, cells fed with added oleic acid
[2] = measured here: cell number channel AC50, cells fed with added oleic acid

SMILES	cell number change	AC50 [1]	AC50 [2]
COc1ccc(C(=O)O)cc1NC(=S)NC(=O)Cc1ccc(Cl)cc1	-5.56%	6.51 µM [falling, single point]	
CCn1c(SCC(=O)NCc2ccc3c(c2)OCO3)nnc1-c1c[nH]c2ccccc12	-15.4%	9.2 µM [falling, partial curve, poor fit]	
Cc1ccc(NC(=O)c2ccc(Nc3c([N+](=O)[O-])cc([N+](=O)[O-])cc3[N+](=O)[O-])cc2)cc1	-64.1%	29.1 µM [rising, single point]	29.1 µM [falling, single point]
Cc1cccc(NC(=O)CNC(=O)c2cccc(S(=O)(=O)NCc3cccs3)c2)c1C	16%	0.651 µM [rising, full curve, poor fit]	
CCOC(=O)c1csc(N)n1	-15.5%	23.1 µM [falling, partial curve, poor fit]	
Cc1cc(NC(=S)N(Cc2ccc(Cl)cc2)Cc2ccc(C(=O)O)cc2)ccc1Cl	-1.09%		
COc1ccc(N2CCN(CCCn3c(=S)[nH]c4ncccc4c3=O)CC2)cc1	2.55%	32.6 µM [rising, partial curve, poor fit]	
O=C(c1ccc(F)cc1)N1CCN(c2ccccn2)CC1	-1.09%	3.66 µM [rising, full curve]	1.64 µM [rising, partial curve, poor fit]
CN(C)CCCOC(=O)CCc1ccccc1	-32%	0.206 µM [falling, full curve]	0.184 µM [falling, full curve]
Cc1c(/C=C/C(=O)c2ccc(C(C)C)cc2)cnn1C	-51.8%	29.1 µM [falling, single point]	0.651 µM [falling, full curve]
COc1cccc(-c2nc3cc(C)ccc3o2)c1	-40.9%	10.3 µM [falling, partial curve]	23.1 µM [falling, partial curve, poor fit]
CCC(C)c1c(O)nc(SCC(=O)Nc2ccccc2)[nH]c1=O (stereo unspecified)	18.1%	0.116 µM [falling, full curve, poor fit]	
Cc1ccc(C(=S)NCS(=O)(=O)c2ccc(C)cc2)cc1	3.45%	29.1 µM [rising, single point]	
CCC(C)NC(=O)CSc1nc2cc(S(=O)(=O)N3CCOCC3)ccc2n1CC (stereo unspecified)	4.84%		6.51 µM [falling, single point]
COc1ccc(C(CNC(=O)c2ccc(C)o2)N2CCOCC2)cc1 (stereo unspecified)	-100%		1.84 µM [falling, partial curve, poor fit]
Cc1cc(C)n(-c2ncc(C#N)cn2)n1	-6.15%		0.92 µM [falling, full curve]
Cc1ccc(S(=O)(=O)N2CCCC2C(=O)n2nc(C)cc2C)cc1 (stereo unspecified)	-12.4%		
CCOc1ccc(Oc2ccc(S(=O)(=O)N3CCOCC3)cc2N)cc1	9.74%		0.00517 µM [rising, full curve, poor fit]
CCN(CC)c1ccc(NC(=O)c2ccc(Br)o2)cc1	-8.84%		
CN(C)S(=O)(=O)c1ccc(Cl)c(NC(=O)COC(=O)[C@@H]2CCCN2C(=O)c2cccs2)c1		6.51 µM [rising, partial curve, poor fit]	0.0731 µM [rising, full curve, poor fit]

SMILES	cell number change	AC50 [1]	AC50 [2]
O=C(C1CCC(=O)N(C2CC2)C1)N1CCC(Oc2ccccc2F)CC1 (stereo unspecified)	-22.3%	29.1 µM [rising, single point]	
O=c1c2ccccc2[nH]c(=S)n1CCCN1CCN(C2CCCCC2)CC1	27%		
O=C(CNC(=O)c1ccccc1Cl)Nc1ccncc1	9.83%	0.731 µM [rising, single point]	
CCCCn1c(N)c(N(CCOC)C(=O)C2CCCN(C(=O)c3ccc(Cl)cc3)C2)c(=O)[nH]c1=O (stereo unspecified)	-19.9%		
CCc1cccc(CC)c1NC(=S)NCCc1ccc(O)c(O)c1	-10.3%		
Cc1cc(C)cc(S(=O)(=O)c2cn(C)c3cc(N4CCN(C)CC4)c(F)cc3c2=O)c1	-23.6%	29.1 µM [rising, single point]	
Cc1cccc(N2CCN(c3ccc4cc(S(=O)(=O)N5CCCCC5)ccc4n3)CC2C)c1 (stereo unspecified)	-1.83%	2.06 µM [rising, partial curve]	
CCOC(=O)c1ccc(NC2c3ccccc3C(=O)N2c2ccccn2)cc1 (stereo unspecified)	32.8%		8.2 µM [rising, partial curve]
COc1ccc(C(c2nnnn2CCc2ccccc2)N2CCN(C3CCCC3)CC2)cc1OC (stereo unspecified)	5.81%	0.231 µM [falling, full curve, poor fit]	
Cc1cccc(C)c1OCc1n[nH]c(=S)n1-c1ccccc1		4.11 µM [falling, partial curve, poor fit]	
COc1ccc(C(=O)Nc2ccc(C)cn2)c(OC)c1			4.11 µM [rising, single point]
CN(C)S(=O)(=O)N1CCC(C(=O)O)(c2ccccc2)CC1			6.51 µM [falling, single point]
CCCCN(C)C1=CC2=CC(=C(C#N)C#N)CCC2CC1 (stereo unspecified)	-97.6%	0.366 µM [falling, full curve]	1.3 µM [falling, partial curve]
Cc1c(C(=O)NNC(=O)c2csc(N3CCOCC3)n2)cccc1[N+](=O)[O-]	2.72%	14.6 µM [rising, partial curve, poor fit]	
Cc1occc1-c1nnc(SCC(=O)NC2(C#N)CCCC2)n1C		18.4 µM [falling, partial curve]	0.13 µM [falling, partial curve, poor fit]
COc1ccc(NC(=O)CCNS(=O)(=O)c2cccc3nsnc23)c(OC)c1	7.92%		
COc1cc2c(cc1NC(=S)NC(=O)c1c(OC)cccc1OC)oc1ccccc12	-36%	3.26 µM [falling, single point]	3.26 µM [falling, full curve]
O=C(OCC(=O)N1CCCC1)c1ccco1	-15%	0.164 µM [falling, full curve]	
Cc1c(NC(=O)CSC2=C(C#N)C(c3ccccc3F)CC(=O)N2)c(=O)n(-c2ccccc2)n1C (stereo unspecified)	29%	0.731 µM [rising, partial curve]	
S=c1[nH]nc(COc2ccccc2)n1/N=C/c1ccc(Cl)cc1Cl	-38.3%		29.1 µM [falling, single point]

4 entries from above in a different format:
SMILES,cell number change,AC50 [1],AC50 [2]
COc1ccc(C(=O)Nc2ccc(C)cn2)c(OC)c1,,,"4.11 µM [rising, single point]"
CN(C)S(=O)(=O)N1CCC(C(=O)O)(c2ccccc2)CC1,,,"6.51 µM [falling, single point]"
Cc1c(C(=O)NNC(=O)c2csc(N3CCOCC3)n2)cccc1[N+](=O)[O-],2.72%,"14.6 µM [rising, partial curve, poor fit]",
Cc1c(NC(=O)CSC2=C(C#N)C(c3ccccc3F)CC(=O)N2)c(=O)n(-c2ccccc2)n1C (stereo unspecified),29%,"0.731 µM [rising, partial curve]",

Following part

SMILES	cell number change	AC50 [1]	AC50 [2]
O=C(CCc1ccccc1)Nc1cccnc1Cl	-2.99%	0.103 µM [falling, full curve, poor fit]	
CCCCn1c(N)c(N(CC(C)C)C(=O)C2CCN(C(=O)c3ccc(F)cc3)CC2)c(=O)[nH]c1=O	-9.91%	0.58 µM [falling, single point]	
Cn1c(=O)[nH]c(=O)c2c1nc(Br)n2CC(O)COc1ccccc1 (stereo unspecified)	-0.249%	4.61 µM [rising, partial curve, poor fit]	
CCCc1cc(=O)n2[nH]c(C)c(-c3ccccc3)c2n1	0.0698%	0.206 µM [falling, full curve]	
COC(=O)C1=C(C(=O)OC)SC(=C2C(=S)C(C)(C)N(C(=O)CC(C)C)c3ccccc32)S1	-162%		13 µM [falling, partial curve]
COc1ccccc1/C=N\Nc1ccccc1[N+](=O)[O-]	-65.8%	0.184 µM [falling, full curve]	0.231 µM [falling, full curve]
CC(=O)c1cn(CC(=O)NCc2ccco2)c2ccccc12	-1.79%	6.51 µM [falling, single point]	
COc1ccc(Nc2nc(Nc3ccc(OC)cc3)nc(-n3[nH]c(=O)c(C)c3C)n2)cc1	-58.8%	32.6 µM [falling, single point]	32.6 µM [falling, single point]
CCOc1ccccc1N1CCN(CC(=O)Nc2nc(C)c(C(=O)N(C)C)s2)CC1	-1.72%	6.51 µM [falling, single point]	
COCCCNC(=S)NNC(=O)c1ccc2c(c1)OCO2	25.7%	29.1 µM [rising, single point]	
O=C(O)c1ccc(Nc2cnc3ccccc3n2)cc1	9.04%	3.66 µM [falling, single point]	
O=C(/C=C/c1ccccc1)CC(O)(c1ccccc1)C(F)(F)C(F)F (stereo unspecified)	-0.396%	6.51 µM [falling, single point]	1.3 µM [falling, full curve, poor fit]
O=C1C(Cl)=C(Nc2ccccc2O)C(=O)N1c1ccccc1	-0.952%		
Cc1ccc(NC(=O)CSc2nc3ccccc3c(=O)n2CCCC(=O)NCC2CCCO2)cc1 (stereo unspecified)		1.03 µM [falling, full curve]	
CC(=O)c1ccccc1NC(=O)COC(=O)/C=C/c1cccs1	37.3%		14.6 µM [rising, single point]
COc1ccccc1CN(C)C(=O)c1sccc1-c1ccccc1	-8.8%	1.46 µM [rising, full curve, poor fit]	
COC(=O)Nc1ccc(S(=O)(=O)NC2CCCCC2)cc1	-1.7%		0.146 µM [rising, full curve, poor fit]
CCc1ccc(C(=O)CSc2n[nH]c(C)n2)cc1	2.95%	1.64 µM [rising, single point]	
CCOC(=O)C1(Cc2ccccc2C(F)(F)F)CCN(CCCn2cccn2)CC1	-2.86%	1.3 µM [falling, partial curve]	
